The supplement of paper PMC10849652
The other results are listed elsewhere or left out.

Chains of the proteins cited; added tags and fusions are not shown. Lines headed by an entry give the natural chain unless they say otherwise; changes in a name come on top.
UniProt Q641Q2, whole entry, looked up: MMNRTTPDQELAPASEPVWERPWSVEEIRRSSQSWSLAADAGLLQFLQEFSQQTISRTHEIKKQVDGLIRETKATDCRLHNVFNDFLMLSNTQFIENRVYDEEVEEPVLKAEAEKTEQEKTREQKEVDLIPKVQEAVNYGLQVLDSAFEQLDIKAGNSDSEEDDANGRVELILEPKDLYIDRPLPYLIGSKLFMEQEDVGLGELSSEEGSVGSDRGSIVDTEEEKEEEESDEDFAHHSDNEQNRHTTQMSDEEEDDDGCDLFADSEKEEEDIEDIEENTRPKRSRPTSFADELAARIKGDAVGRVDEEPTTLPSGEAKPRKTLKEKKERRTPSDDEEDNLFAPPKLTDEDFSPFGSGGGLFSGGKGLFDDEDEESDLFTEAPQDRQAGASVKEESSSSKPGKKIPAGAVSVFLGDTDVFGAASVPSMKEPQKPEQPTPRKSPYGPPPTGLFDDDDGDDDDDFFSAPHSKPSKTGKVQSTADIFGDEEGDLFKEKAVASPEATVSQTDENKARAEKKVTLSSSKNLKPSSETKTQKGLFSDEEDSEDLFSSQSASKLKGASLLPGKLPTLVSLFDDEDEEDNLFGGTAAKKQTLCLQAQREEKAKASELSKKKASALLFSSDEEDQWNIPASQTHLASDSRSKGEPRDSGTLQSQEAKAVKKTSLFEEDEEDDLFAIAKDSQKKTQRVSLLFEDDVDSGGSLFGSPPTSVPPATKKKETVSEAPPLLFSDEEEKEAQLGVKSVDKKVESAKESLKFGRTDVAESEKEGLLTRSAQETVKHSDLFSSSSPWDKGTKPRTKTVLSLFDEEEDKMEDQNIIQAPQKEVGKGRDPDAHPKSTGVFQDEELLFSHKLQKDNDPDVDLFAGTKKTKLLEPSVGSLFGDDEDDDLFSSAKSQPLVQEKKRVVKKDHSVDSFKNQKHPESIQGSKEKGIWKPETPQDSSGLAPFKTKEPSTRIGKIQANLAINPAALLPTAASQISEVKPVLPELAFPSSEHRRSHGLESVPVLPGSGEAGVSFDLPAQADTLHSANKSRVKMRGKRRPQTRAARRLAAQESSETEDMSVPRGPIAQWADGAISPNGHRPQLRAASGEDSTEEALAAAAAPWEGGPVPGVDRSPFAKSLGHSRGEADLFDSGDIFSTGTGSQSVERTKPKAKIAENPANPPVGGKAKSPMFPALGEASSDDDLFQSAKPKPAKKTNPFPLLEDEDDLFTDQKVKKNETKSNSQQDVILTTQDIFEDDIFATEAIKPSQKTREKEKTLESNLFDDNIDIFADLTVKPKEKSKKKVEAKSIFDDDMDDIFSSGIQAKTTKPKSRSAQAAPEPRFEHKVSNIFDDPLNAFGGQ
UniProt Q709C8: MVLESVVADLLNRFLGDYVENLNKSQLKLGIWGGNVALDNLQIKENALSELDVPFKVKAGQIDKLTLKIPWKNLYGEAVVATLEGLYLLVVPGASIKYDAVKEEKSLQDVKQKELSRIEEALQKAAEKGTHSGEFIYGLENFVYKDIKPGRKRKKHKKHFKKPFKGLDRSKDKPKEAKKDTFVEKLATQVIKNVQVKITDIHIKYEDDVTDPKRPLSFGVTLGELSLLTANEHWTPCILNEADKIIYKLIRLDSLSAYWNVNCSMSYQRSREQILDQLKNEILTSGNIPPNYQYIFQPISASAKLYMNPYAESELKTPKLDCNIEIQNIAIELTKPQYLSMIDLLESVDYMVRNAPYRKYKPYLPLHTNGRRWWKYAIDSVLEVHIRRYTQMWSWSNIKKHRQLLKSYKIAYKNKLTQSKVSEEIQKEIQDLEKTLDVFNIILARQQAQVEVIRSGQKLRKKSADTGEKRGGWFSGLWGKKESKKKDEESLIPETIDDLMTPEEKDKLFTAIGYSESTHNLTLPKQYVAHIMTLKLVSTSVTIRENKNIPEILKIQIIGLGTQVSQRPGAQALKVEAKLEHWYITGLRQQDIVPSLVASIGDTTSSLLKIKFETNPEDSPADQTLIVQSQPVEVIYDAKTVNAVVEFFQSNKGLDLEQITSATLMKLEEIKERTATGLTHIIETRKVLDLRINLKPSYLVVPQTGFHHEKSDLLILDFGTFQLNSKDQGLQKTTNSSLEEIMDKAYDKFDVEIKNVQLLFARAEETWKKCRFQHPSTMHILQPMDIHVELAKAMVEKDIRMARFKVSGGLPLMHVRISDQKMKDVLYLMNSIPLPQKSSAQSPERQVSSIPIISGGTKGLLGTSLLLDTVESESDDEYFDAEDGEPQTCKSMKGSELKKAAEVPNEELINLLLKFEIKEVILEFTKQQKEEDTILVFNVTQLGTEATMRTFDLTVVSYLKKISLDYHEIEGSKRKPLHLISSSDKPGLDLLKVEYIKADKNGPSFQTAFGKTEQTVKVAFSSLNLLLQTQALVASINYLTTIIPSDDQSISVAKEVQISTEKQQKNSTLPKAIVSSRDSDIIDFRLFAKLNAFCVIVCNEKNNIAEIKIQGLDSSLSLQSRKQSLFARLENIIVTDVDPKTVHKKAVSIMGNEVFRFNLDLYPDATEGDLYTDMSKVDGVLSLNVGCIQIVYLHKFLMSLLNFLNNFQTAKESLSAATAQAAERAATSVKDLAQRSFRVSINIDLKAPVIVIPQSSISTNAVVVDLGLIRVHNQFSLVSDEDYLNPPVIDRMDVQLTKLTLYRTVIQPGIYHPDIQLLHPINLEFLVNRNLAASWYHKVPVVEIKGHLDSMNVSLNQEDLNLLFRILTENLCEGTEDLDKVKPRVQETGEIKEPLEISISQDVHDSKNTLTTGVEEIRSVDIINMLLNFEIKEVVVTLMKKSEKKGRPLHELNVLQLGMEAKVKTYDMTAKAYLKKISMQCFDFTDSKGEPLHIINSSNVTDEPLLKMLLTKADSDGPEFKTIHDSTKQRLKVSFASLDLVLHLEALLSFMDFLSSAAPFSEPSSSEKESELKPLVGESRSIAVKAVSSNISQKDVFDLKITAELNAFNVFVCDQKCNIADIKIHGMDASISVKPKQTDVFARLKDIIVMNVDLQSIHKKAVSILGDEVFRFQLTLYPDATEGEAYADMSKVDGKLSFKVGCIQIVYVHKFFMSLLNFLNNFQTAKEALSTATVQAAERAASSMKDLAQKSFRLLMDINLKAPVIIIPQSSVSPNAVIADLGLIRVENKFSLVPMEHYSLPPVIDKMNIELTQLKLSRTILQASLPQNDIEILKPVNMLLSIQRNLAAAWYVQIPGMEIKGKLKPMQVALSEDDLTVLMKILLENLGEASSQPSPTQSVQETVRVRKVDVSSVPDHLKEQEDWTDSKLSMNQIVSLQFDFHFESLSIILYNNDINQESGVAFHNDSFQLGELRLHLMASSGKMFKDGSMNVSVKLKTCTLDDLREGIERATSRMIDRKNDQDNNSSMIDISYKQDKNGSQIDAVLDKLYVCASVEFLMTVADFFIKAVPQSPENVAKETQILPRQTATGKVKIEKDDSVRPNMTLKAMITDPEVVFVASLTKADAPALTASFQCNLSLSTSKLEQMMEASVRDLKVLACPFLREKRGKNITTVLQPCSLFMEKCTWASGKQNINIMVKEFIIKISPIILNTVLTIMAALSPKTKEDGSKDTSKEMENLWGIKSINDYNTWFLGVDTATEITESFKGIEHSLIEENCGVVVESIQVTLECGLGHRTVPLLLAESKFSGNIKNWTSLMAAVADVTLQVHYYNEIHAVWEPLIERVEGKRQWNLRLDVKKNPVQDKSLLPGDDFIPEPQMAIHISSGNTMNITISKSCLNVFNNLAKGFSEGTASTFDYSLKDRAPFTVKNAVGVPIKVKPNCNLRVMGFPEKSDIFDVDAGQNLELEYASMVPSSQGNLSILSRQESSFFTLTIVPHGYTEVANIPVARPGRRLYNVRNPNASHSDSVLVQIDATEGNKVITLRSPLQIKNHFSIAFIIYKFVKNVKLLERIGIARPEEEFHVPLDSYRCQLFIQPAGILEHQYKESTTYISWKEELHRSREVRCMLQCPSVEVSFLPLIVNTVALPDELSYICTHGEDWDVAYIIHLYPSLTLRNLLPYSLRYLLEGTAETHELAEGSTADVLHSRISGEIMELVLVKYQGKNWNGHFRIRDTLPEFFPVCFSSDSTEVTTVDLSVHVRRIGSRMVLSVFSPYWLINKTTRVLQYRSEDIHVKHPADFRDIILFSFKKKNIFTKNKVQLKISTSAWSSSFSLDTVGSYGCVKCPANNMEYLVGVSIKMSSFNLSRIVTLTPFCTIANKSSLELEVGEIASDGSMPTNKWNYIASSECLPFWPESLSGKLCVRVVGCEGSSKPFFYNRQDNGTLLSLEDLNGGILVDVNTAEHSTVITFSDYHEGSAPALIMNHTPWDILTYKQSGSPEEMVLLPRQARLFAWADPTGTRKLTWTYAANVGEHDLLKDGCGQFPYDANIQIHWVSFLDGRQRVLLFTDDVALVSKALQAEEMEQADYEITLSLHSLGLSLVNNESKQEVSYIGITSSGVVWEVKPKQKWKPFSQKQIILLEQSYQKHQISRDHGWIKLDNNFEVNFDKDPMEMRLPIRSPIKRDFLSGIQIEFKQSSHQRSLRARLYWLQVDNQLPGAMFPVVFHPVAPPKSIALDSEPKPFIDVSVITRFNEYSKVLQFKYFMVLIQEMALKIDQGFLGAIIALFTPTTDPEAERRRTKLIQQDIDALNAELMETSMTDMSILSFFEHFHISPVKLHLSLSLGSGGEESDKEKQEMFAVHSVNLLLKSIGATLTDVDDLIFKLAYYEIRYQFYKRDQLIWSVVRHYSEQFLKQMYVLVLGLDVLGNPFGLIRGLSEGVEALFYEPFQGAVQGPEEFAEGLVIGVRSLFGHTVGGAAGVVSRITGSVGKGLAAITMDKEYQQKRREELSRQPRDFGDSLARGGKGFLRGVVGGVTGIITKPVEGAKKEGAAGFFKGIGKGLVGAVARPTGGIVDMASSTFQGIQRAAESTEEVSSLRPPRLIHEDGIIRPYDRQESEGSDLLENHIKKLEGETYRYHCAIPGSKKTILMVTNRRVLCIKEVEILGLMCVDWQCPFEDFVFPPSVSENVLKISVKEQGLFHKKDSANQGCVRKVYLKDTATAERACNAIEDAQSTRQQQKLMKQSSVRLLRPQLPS
UniProt Q9BQA1, whole entry, looked up: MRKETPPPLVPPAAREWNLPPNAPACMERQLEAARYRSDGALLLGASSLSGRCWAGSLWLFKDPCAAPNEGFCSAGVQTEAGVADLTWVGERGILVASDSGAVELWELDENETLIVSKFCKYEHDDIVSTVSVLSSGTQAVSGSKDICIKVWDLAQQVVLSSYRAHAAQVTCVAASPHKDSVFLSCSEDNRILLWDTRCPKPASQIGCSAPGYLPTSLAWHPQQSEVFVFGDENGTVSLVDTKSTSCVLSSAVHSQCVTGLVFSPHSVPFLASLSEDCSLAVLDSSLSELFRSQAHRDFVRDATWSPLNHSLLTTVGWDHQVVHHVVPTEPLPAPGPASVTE
UniProt Q8IV63: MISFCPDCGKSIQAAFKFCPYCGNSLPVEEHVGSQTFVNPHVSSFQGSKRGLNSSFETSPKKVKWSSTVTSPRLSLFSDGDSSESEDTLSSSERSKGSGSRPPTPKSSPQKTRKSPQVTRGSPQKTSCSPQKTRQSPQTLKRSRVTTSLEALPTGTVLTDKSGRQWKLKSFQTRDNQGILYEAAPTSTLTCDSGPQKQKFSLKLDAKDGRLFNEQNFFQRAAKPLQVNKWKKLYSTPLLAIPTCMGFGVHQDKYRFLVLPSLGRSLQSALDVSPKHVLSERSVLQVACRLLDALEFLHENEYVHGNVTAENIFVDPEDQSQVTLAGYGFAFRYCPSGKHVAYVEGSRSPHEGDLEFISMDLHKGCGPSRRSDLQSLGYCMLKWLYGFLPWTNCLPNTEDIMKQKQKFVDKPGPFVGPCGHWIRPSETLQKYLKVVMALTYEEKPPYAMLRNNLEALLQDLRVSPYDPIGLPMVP
UniProt Q8TBZ3: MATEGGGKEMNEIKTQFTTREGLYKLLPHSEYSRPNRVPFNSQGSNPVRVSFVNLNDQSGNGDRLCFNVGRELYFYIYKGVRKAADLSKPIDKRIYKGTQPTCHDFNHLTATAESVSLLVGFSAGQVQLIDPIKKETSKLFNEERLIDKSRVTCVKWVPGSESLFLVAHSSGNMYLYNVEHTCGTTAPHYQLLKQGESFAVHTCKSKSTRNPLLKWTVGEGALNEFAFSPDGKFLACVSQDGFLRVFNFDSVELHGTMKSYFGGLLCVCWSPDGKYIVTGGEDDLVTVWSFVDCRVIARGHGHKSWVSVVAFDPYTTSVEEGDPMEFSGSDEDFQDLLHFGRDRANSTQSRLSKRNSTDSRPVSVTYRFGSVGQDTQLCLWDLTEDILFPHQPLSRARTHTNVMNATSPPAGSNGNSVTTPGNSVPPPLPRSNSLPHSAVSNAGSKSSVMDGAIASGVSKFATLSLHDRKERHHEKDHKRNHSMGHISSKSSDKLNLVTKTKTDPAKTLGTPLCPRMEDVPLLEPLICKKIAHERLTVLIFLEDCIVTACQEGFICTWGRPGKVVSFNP

Compound: Cc1nc(Nc2n[nH]c3c2CN(C(=O)N[C@H](CN(C)C)c2ccccc2)C3(C)C)c2sccc2n1
Assay: log2 fold change, soluble protein after heating vs DMSO (PISA); higher = thermal stabilisation; K562 cells, 10 uM, 30 min; active = over 0.2 and 3.5 SD of the protein, either way, in both replicates (recomputed)
Procedure, shortened: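 Thermal stability values are relative to control samples and come from duplicates. They are expressed as log2 fold changes. For measurement, K562 cells (2×10^6 cells/mL) received 10 μM compound for 30 min, and aliquots were heated for 3 min over 48°C-58°C, pooled, and extracted at 4°C in PBS with 0.5% NP-40. Soluble protein, the supernatant after 21,000xg for 90 min, was quantified by TMTpro 16plex LC-MS/MS with equalised channel sums.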

log2 fold change, inactive:
WDR61 (UniProt Q9GZS3) 0.029
WDR36 (UniProt Q8NI36) 0.078
WDR44 (UniProt Q5JSH3) -0.034
WDR13 (UniProt Q9H1Z4) -0.126
WASL (UniProt O00401) 0.134
WDR74 (UniProt Q6RFH5) 0.012
WASHC2A (UniProt Q641Q2) -0.039
WARS (UniProt P23381) 0.008
WASHC4 (UniProt Q2M389) 0.102
WDFY1 (UniProt Q8IWB7) -0.004
VPS13C (UniProt Q709C8) 0.003
WBP11 (UniProt Q9Y2W2) 0.015
WDR45B (UniProt Q5MNZ6) -0.012
VPS35 (UniProt Q96QK1) -0.02
WDR77 (UniProt Q9BQA1) 0.03
WDR5 (UniProt P61964) 0.063
WASF2 (UniProt Q9Y6W5) -0.033
VRK3 (UniProt Q8IV63) 0.056
WDR89 (UniProt Q96FK6) -0.019
WRAP73 (UniProt Q9P2S5) 0.041
VDAC3 (UniProt Q9Y277) 0.053
WDR6 (UniProt Q9NNW5) 0.024
WDR20 isoform 7 (UniProt Q8TBZ3) -0.034
WIPF3 (UniProt A6NGB9) 0.005
